Measured values as given in the supplement of paper PMC10849652.
Some of the results follow.

The chains behind the UniProt entries cited, without tags or fusion partners. Where a name states a change or a piece, a line headed by the entry shows the natural chain unless it says otherwise.
UniProt Q9NRM2: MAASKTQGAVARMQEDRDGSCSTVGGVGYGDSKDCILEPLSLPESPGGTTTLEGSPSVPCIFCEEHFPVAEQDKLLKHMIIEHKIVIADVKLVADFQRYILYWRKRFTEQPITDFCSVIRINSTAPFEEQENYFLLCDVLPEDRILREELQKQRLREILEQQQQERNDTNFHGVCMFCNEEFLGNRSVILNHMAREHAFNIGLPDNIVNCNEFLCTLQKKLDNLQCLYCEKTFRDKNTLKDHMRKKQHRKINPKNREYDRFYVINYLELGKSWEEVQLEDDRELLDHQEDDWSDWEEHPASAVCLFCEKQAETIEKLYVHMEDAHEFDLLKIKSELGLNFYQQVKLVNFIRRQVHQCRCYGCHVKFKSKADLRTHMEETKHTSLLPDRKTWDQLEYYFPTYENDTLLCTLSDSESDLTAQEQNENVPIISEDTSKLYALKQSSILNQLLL
UniProt Q8NF64: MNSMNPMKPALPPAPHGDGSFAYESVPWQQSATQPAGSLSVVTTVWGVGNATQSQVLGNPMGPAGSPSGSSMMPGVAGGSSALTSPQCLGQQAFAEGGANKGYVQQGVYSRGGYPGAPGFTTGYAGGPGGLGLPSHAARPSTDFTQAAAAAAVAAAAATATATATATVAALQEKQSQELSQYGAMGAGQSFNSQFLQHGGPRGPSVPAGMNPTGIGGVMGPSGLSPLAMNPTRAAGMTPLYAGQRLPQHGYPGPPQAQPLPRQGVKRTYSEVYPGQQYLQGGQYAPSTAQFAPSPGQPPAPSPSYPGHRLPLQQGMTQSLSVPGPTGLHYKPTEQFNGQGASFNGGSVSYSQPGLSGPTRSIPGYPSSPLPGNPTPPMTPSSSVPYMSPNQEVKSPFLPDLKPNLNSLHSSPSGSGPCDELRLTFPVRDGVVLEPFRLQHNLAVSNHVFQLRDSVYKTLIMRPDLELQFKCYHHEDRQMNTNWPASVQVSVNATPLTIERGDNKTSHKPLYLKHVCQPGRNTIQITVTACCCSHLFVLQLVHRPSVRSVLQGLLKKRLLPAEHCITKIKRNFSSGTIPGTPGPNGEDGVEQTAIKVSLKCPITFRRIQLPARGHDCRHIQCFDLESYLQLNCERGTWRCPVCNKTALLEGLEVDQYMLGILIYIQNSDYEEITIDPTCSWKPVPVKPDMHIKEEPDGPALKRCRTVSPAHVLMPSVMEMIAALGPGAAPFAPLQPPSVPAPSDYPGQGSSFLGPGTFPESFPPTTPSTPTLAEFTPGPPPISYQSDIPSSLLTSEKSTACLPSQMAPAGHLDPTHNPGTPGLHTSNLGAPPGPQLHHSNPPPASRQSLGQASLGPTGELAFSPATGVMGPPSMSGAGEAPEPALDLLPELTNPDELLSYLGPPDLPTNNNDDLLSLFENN
UniProt Q92610: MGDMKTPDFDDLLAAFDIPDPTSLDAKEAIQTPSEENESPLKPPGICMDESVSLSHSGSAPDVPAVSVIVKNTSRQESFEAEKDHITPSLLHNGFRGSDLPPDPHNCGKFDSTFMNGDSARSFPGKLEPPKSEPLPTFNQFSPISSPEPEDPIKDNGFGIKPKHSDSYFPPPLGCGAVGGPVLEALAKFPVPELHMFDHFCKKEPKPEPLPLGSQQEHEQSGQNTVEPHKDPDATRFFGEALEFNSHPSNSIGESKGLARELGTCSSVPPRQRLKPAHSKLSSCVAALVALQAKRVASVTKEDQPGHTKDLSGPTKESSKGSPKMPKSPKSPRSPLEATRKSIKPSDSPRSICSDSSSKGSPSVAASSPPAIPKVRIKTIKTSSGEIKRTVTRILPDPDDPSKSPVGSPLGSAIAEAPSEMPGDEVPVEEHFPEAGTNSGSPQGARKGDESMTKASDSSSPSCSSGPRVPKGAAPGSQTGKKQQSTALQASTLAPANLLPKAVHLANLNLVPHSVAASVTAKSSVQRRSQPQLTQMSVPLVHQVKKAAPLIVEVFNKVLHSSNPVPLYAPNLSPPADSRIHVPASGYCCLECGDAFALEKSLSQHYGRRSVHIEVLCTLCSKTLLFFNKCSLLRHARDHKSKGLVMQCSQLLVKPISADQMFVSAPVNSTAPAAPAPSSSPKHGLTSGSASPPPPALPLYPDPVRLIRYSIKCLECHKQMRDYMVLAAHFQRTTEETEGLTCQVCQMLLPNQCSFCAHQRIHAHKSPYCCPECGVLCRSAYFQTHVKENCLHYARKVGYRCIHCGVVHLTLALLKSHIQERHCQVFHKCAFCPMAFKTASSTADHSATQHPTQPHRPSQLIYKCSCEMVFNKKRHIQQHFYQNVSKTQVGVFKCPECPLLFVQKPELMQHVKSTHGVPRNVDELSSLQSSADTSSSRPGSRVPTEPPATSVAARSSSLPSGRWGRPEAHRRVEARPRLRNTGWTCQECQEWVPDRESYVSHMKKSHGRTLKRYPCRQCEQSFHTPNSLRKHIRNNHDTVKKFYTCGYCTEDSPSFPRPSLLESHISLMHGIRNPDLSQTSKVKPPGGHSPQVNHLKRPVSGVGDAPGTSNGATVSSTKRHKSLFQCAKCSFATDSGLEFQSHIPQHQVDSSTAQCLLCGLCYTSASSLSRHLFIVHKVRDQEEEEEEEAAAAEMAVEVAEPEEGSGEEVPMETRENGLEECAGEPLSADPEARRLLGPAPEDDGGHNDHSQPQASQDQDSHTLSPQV
UniProt Q03936: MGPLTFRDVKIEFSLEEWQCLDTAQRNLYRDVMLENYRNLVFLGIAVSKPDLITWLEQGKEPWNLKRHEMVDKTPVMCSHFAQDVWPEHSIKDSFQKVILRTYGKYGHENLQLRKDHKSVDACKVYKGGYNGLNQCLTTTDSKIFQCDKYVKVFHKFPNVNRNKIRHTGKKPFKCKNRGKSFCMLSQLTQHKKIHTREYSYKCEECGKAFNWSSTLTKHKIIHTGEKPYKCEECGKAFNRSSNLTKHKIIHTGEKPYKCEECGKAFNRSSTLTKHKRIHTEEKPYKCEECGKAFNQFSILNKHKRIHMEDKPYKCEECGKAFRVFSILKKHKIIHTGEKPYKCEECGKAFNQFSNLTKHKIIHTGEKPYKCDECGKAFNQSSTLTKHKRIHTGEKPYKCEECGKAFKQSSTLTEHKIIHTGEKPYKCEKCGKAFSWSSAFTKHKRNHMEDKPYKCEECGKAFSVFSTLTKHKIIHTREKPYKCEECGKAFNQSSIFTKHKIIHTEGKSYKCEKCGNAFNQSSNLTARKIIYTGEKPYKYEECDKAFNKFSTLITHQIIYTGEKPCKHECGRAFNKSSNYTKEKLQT
UniProt Q5VV52: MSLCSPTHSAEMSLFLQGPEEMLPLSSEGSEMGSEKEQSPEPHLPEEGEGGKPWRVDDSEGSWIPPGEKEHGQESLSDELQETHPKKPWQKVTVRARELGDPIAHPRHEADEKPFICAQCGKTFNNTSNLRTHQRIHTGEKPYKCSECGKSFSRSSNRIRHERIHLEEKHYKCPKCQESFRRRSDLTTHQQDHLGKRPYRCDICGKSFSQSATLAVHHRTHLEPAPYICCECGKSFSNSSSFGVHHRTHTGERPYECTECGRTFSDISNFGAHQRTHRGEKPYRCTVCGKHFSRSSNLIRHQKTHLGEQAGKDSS
ZNF654, A0A1B0GWA0, UniProt A0A1B0GWA0, whole entry, looked up: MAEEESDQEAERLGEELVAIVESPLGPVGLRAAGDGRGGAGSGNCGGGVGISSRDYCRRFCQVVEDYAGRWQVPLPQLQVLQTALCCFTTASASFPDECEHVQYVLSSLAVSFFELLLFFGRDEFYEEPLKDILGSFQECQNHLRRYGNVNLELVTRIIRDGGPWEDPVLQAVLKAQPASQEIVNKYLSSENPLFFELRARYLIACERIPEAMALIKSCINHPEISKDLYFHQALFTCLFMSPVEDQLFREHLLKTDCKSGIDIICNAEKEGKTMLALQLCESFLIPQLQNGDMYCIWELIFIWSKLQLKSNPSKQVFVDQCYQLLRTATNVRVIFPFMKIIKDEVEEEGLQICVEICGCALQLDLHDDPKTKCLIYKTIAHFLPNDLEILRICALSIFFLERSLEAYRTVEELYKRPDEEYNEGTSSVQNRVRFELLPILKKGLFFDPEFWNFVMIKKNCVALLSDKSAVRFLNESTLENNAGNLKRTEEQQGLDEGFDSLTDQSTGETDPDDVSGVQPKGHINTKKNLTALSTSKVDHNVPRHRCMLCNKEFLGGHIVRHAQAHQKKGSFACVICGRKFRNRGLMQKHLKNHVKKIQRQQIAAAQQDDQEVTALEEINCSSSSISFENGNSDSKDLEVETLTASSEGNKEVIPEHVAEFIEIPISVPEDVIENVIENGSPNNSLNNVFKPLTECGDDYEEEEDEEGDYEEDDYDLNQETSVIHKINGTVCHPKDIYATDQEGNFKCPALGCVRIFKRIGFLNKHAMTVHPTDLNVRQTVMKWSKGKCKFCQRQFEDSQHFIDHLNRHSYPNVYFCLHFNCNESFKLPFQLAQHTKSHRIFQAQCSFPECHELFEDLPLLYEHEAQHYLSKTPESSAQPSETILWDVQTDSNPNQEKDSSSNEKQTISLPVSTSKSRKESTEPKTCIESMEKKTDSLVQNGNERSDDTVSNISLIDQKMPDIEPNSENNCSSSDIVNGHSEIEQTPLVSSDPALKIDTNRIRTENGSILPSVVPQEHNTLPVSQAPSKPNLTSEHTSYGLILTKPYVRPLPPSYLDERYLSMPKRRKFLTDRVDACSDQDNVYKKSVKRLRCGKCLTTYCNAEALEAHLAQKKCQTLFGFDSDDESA
UniProt Q6WRX3: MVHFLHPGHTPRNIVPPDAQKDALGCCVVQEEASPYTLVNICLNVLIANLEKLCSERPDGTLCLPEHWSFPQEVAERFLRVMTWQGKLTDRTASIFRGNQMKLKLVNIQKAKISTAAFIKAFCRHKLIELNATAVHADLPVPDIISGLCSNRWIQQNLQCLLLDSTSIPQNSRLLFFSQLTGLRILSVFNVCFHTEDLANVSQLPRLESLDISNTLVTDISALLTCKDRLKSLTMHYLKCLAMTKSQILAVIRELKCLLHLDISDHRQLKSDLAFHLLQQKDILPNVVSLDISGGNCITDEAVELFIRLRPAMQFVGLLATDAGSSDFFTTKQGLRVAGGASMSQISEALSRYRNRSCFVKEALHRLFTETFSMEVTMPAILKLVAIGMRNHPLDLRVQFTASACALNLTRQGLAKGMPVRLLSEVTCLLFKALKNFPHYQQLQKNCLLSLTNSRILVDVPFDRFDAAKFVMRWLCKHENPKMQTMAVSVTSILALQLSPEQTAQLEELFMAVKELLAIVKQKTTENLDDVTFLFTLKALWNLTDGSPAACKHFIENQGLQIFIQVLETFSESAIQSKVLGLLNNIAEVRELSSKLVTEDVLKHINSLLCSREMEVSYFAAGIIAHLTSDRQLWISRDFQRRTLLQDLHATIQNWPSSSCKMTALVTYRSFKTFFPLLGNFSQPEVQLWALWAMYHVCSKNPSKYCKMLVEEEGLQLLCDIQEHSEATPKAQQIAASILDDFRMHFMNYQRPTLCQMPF
UniProt Q9H4I2: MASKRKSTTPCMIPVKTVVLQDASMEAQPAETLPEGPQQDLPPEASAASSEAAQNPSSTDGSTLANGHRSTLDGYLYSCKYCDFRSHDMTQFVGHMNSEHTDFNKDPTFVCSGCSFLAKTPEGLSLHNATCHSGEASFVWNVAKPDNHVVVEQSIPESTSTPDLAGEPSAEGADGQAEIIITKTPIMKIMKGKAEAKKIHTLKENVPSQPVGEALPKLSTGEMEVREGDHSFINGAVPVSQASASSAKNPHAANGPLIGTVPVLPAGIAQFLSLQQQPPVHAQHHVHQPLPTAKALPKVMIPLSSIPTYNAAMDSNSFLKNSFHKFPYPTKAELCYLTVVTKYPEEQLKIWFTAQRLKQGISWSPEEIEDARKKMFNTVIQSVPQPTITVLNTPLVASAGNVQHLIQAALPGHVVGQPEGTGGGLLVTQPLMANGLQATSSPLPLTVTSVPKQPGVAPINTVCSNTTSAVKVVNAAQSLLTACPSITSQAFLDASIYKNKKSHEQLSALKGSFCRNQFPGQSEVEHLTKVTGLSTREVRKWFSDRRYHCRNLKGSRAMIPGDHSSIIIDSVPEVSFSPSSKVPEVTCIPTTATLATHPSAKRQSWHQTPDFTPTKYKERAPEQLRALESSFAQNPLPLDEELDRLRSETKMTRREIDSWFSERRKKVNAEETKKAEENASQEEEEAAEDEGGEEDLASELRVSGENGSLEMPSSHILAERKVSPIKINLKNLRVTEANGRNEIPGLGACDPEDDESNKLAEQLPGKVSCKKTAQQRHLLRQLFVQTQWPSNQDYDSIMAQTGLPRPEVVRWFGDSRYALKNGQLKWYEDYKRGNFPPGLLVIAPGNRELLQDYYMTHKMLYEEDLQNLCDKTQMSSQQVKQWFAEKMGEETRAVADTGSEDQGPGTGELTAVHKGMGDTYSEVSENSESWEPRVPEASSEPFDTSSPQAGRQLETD
UniProt O00488: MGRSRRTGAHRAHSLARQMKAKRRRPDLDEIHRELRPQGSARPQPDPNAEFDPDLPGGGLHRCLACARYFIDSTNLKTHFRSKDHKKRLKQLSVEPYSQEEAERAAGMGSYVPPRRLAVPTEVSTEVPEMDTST

Columns and labels:
Test in all cases: log2 fold change, soluble protein after heating vs DMSO (PISA); higher = thermal stabilisation; K562 lysate, 10 uM; active = over 0.2 and 3.5 SD of the protein, either way, in both replicates (recomputed)
ibrutinib = compound: C=CC(=O)N1CCC[C@@H](n2nc(-c3ccc(Oc4ccccc4)cc3)c3c(N)ncnc32)C1 [ibrutinib]
Summary of the method: (§1)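 Log-two fold change in thermal stability relative to solvent controls is reported from duplicates. For each sample, crude K562 extract from dounce-homogenised pellets in PBS pH 7.4 with 1 mM MgCl2, at 1 mg/mL protein, was treated with 10 μM compound for 30 min. Aliquots heated for 3 min across 48°C-58°C were pooled, brought to 0.5% NP-40 at 4°C and cleared at 21,000xg for 90 min. The supernatant was quantified by TMTpro 16plex LC-MS/MS with channel sums equalised.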

[1] = compound: CC(=O)c1cnc2ccc(-c3cc(Cl)c(O)c(Cl)c3)nc2c1N[C@H]1CC[C@H](CN(C)C)CC1
Summary of the method: as §1

ralimetinib = compound: CC(C)(C)Cn1c(N)nc2ccc(-c3[nH]c(C(C)(C)C)nc3-c3ccc(F)cc3)nc21 [ralimetinib]
Summary of the method: as §1

[2] = compound: CC(C)(O)CC(=O)NCCn1ccc2ncnc(Nc3ccc(Oc4cccc(C(F)(F)F)c4)c(Cl)c3)c21
Summary of the method: as §1

[3] = compound: CC(C)C1=C2N=C(C=C(N2N=C1)NCC3=CC=CC=C3)NCCCCCCN
Summary of the method: as §1

[4] = compound: CC1=C(C(CC(=O)N1)C2=CC=C(C=C2)C(F)(F)F)C(=O)NC3=C(C=C4C(=C3)C=NN4)F
Summary of the method: as §1

[5] = compound: CC1=C(C2=C(C=C1)C(=O)C3=CC=CC=C3N2CCCN)C
Summary of the method: as §1

[6] = compound: CC1=C(C=C(C=C1)NC(=O)C2=CC(=CC=C2)C(C)(C)C#N)NC3=CC4=C(C=C3)N=CN(C4=O)C
Summary of the method: as §1

[7] = compound: CC1=C(C=C(C=C1)NC(=O)C2=CC(=CC=C2)N(C)C)NC(=O)C3=CC=C(C=C3)O
Summary of the method: as §1

[8] = compound: CC1=CC=C(C=C1)SC2=C3C=C(SC3=CN=C2)C(=O)N
Summary of the method: as §1

Measured: log2 fold change

ZW10 (UniProt O43264)
inactive: ibrutinib 0.017 | [1] -0.01 | ralimetinib -0.009 | [2] -0.033 | [3] -0.021 | [4] -0.009 | [5] 0 | [6] -0.006 | [7] 0.044 | [8] 0.004

ZNF318 (UniProt Q5VUA4)
inactive: ibrutinib 0.022 | [1] -0.043 | ralimetinib 0.029 | [2] -0.06 | [3] 0.014 | [4] 0.023 | [5] 0.038 | [6] -0.036 | [7] 0.046 | [8] 0.083

ZNF451 (UniProt Q9Y4E5)
inactive: ibrutinib 0.004 | [1] 0.019 | ralimetinib 0.02 | [2] 0.007 | [3] -0.011 | [4] 0.033 | [5] -0.003 | [6] -0.012 | [7] 0.019 | [8] 0.055

ZYX (UniProt Q15942)
inactive: ibrutinib 0.009 | [1] 0.015 | ralimetinib -0.007 | [2] 0.005 | [3] -0.001 | [4] -0.015 | [5] -0.015 | [6] 0.039 | [7] 0.01 | [8] -0.005

ZNF74 isoform 5 (UniProt Q16587)
inactive: ibrutinib -0.268 | [1] 0.045 | ralimetinib 0.109 | [2] 0.255 | [3] -0.091 | [4] 0.12 | [5] -0.237 | [7] 0.253 | [8] 0.149

ZNF669 (UniProt Q96BR6)
inactive: ibrutinib 0.074 | [1] 0.107 | ralimetinib 0.004 | [2] -0.125 | [3] -0.09 | [4] 0.022 | [5] -0.025 | [6] -0.038 | [7] 0.067 | [8] 0.063

ZNF511 (UniProt Q8NB15)
inactive: ibrutinib 0.023 | [1] -0.03 | ralimetinib 0.029 | [2] -0.074 | [3] -0.039 | [4] 0.045 | [5] -0.076 | [6] -0.026 | [7] -0.007 | [8] 0.126

ZNF277 (UniProt Q9NRM2)
inactive: ibrutinib -0.009 | [1] 0.004 | ralimetinib 0.061 | [2] -0.005 | [3] -0.034 | [4] -0.069 | [5] -0.027 | [6] -0.01 | [7] -0.016 | [8] 0.015

ZKSCAN3 (UniProt Q9BRR0)
inactive: ibrutinib 0.023 | [1] -0.365 | ralimetinib -0.079 | [2] -0.041 | [3] 0 | [5] 0.028 | [6] 0.08 | [7] 0.039 | [8] -0.225

Reprinted at random: 2 entries already listed
ZNF511 (UniProt Q8NB15)
inactive: ibrutinib 0.023 | [1] -0.03 | ralimetinib 0.029 | [2] -0.074 | [3] -0.039 | [4] 0.045 | [5] -0.076 | [6] -0.026 | [7] -0.007 | [8] 0.126

ZNF277 (UniProt Q9NRM2)
inactive: ibrutinib -0.009 | [1] 0.004 | ralimetinib 0.061 | [2] -0.005 | [3] -0.034 | [4] -0.069 | [5] -0.027 | [6] -0.01 | [7] -0.016 | [8] 0.015

Later entries

ZMIZ2 (UniProt Q8NF64)
inactive: ibrutinib 0.114 | [1] 0.071 | [3] -0.026 | [4] 0.012 | [5] -0.123 | [6] 0 | [8] 0.011

ZNF629 (UniProt Q9UEG4)
inactive: ibrutinib 0.047 | [1] -0.014 | ralimetinib 0.037 | [2] -0.084 | [3] -0.027 | [4] -0.046 | [5] -0.04 | [6] 0.011 | [7] -0.013 | [8] -0.02

ZNF592 (UniProt Q92610)
inactive: ibrutinib 0.097 | [1] 0.143 | ralimetinib 0.006 | [2] -0.048 | [3] -0.009 | [5] -0.047 | [6] 0.098 | [7] -0.024 | [8] 0.068

ZRANB2 (UniProt O95218)
inactive: ibrutinib -0.027 | [1] -0.012 | ralimetinib -0.04 | [2] -0.034 | [3] -0.024 | [4] -0.032 | [5] 0.023 | [6] 0.063 | [7] 0.013 | [8] -0.01

ZKSCAN1 (UniProt P17029)
inactive: ibrutinib 0.043 | [1] -0.045 | ralimetinib -0.046 | [2] 0.012 | [3] 0.018 | [4] 0.082 | [5] 0.012 | [6] 0.036 | [7] 0.048 | [8] -0.007

ZNF92 (UniProt Q03936)
inactive: ibrutinib -0.022 | [1] 0.025 | ralimetinib 0.192 | [2] 0.086 | [3] -0.051 | [4] -0.045 | [5] 0 | [6] -0.09 | [7] -0.257 | [8] 0.113

ZNF691 (UniProt Q5VV52)
inactive: ibrutinib 0.006 | [1] -0.077 | ralimetinib -0.073 | [2] -0.206 | [5] 0.003 | [6] -0.03 | [7] 0.11 | [8] 0.029

ZNF654, A0A1B0GWA0
inactive: ibrutinib -0.076 | [1] 0.17 | ralimetinib 0.129 | [2] -0.083 | [3] 0.088 | [4] 0.04 | [6] 0.203 | [7] -0.061 | [8] 0.048

ZYG11A (UniProt Q6WRX3)
inactive: ibrutinib 0.228 | [1] 0.063 | ralimetinib 0.082 | [2] -0.087 | [3] -0.159 | [4] 0.046 | [7] 0.052 | [8] -0.315

ZNF207 isoform 4 (UniProt O43670)
inactive: ibrutinib 0.058 | [1] 0.01 | ralimetinib 0.004 | [2] -0.008 | [3] -0.038 | [4] 0.032 | [5] -0.025 | [6] -0.015 | [7] 0.017 | [8] -0.022

ZHX3 (UniProt Q9H4I2)
inactive: ibrutinib 0.125 | [1] 0.059 | ralimetinib 0.015 | [2] -0.016 | [4] -0.134 | [5] -0.051 | [7] 0.126 | [8] -0.105

ZNF217 (UniProt O75362)
inactive: ibrutinib -0.033 | [1] 0.053 | ralimetinib 0.017 | [2] -0.014 | [3] -0.061 | [4] -0.005 | [5] -0.022 | [6] 0.002 | [7] 0.025 | [8] -0.031

ZNF830 (UniProt Q96NB3)
inactive: ibrutinib 0.048 | [1] -0.009 | ralimetinib -0.022 | [2] 0.016 | [3] -0.005 | [4] 0.055 | [5] -0.031 | [6] 0.006 | [7] -0.016 | [8] -0.022

ZNF407 (UniProt Q9C0G0)
inactive: ibrutinib 0.052 | [1] -0.072 | ralimetinib 0.089 | [2] 0.055 | [3] 0.036 | [5] -0.206 | [7] -0.213 | [8] -0.064

ZNF593 (UniProt O00488)
inactive: ibrutinib 0.018 | [1] 0.17 | ralimetinib 0.096 | [2] 0.013 | [3] -0.081 | [5] -0.017 | [6] -0.028 | [7] -0.034 | [8] -0.051

ZHX1 (UniProt Q9UKY1)
inactive: ibrutinib -0.026 | [1] 0.015 | ralimetinib -0.007 | [2] 0.034 | [3] 0.127 | [4] 0.109 | [5] -0.144 | [6] -0.053 | [7] 0.024 | [8] -0.013

ZNHIT3 (UniProt Q15649)
inactive: ibrutinib 0.034 | [1] -0.081 | ralimetinib 0.006 | [2] -0.027 | [3] -0.023 | [5] -0.076 | [6] 0.12 | [7] -0.021 | [8] -0.103

hCG_1984214 (UniProt I3L0E3)
inactive: ibrutinib 0.017 | [1] -0.086 | ralimetinib -0.012 | [2] 0.023 | [3] 0.031 | [4] 0.025 | [5] -0.037 | [6] -0.032 | [7] -0.02 | [8] -0.004

ZNRF2 (UniProt Q8NHG8)
inactive: ibrutinib 0.084 | [1] 0.053 | ralimetinib -0.028 | [2] 0.093 | [4] 0.047 | [6] 0.202 | [7] 0.04 | [8] -0.062

ZNF131 (UniProt P52739)
inactive: ibrutinib -0.053 | [1] 0.026 | ralimetinib 0.023 | [2] -0.019 | [3] 0.023 | [4] 0.024 | [5] 0 | [6] 0.024 | [7] -0.015 | [8] -0.007

ZNF768 (UniProt Q9H5H4)
inactive: ibrutinib 0.009 | [1] -0.013 | ralimetinib -0.033 | [2] 0.033 | [3] 0.005 | [4] -0.024 | [5] 0.063 | [6] 0.109 | [7] 0.024 | [8] 0.027

ZNHIT2 (UniProt Q9UHR6)
inactive: ibrutinib 0.091 | [1] -0.08 | ralimetinib 0.007 | [2] 0.029 | [3] 0.151 | [4] -0.01 | [5] 0.01 | [6] 0.046 | [7] -0.013 | [8] 0.014

ZMAT2 (UniProt Q96NC0)
inactive: ibrutinib 0.009 | [1] -0.016 | ralimetinib -0.011 | [2] 0.013 | [3] 0.035 | [4] -0.004 | [5] -0.021 | [6] 0.032 | [7] -0.028 | [8] -0.022
